US7786122B2
The structures given here were assigned with low confidence; some may be wrong.

Target: γ-secretase (Homo sapiens, UniProt P49768)
Assay: In vitro assay based on the inhibition of Aβ formation from membrane preparations
Conditions: read-out: ACTIVITY RATING (activity based on IC50 values)
Description: In Vitro Assay to Identify γ-Secretase Inhibitor Based on the Inhibition of Aβ Formation from Membrane Preparations.
An isolated membrane fraction which contains functionally active γ-secretase and β-APP substrates can generate γ-secretase cleavage products including Aβ (Roberts, S. B.; Hendrick, J. P.; Vinitsky, A.; Lewis, M.; Smith, D. W.; Pak, R. PCT Publication WO 01/0175435; Fechteler, K.; Kostka, M.; Fuchs, M. Patent Application No. DE 99-19941039; Shearman, M.; Beher, D. et al., Biochemistry, 2000, 39, 8698-8704; Zhang, L. Song, L. et al., Biochemistry 2001, 40, 5049-5055). […] The Aβ present in a homogeneous sample containing membranes can be detected by time-resolved fluorescence with two antibodies that recognize different epitopes of Aβ. […] A lack of fluorescence is indicative of the absence of cleavage products, resulting from inhibition of γ-secretase. […]
A typical membrane-based assay requires 45 μg membrane protein per well in a 96- or 384-well format. […] Incubation of the membranes with the test agent will continue for approximately 90 minutes at which time fluorescence labeled antibodies are added to each well for Aβ quantitation. […] Results are obtained by analysis of the plate in a fluorescence plate reader and comparison to the mock treated membranes and samples in which known amounts of Aβ were added to construct a standard concentration curve. […]

| IC50 [nM] | Structure (SMILES) |
| --- | --- |
| < 50 | CC(C)CC(C(N)=O)N(CCCCCCn1ccnc1)S(=O)(=O)c1ccc(Cl)cc1 (centres unmarked) |
| < 50 | COc1ccc(CN(C(CC(C)C)C(N)=O)S(=O)(=O)c2ccc(F)cc2)cc1F (centres unmarked) |
